Assay results from patent US20250346630A1, “Engineering Peptides Using Peptide Epitope Linker Evolution” (AGENCY FOR SCIENCE, TECHNOLOGY AND RESEARCH, priority 2022, published 2025).
No constants are given. Whether binding was seen depends on the method and setting. Some entries that bind do so weakly or less than the wild type.

By UniProt entry, the sequences of proteins in these tests, tags left out. Where a name states a change or a piece, a line headed by the entry shows the natural chain unless it says otherwise. Chains listed by the source or under a name are the forms on record and can include a tag or linker.
sortase-labelled N-terminally biotinylated eIF4E (P06730, form named): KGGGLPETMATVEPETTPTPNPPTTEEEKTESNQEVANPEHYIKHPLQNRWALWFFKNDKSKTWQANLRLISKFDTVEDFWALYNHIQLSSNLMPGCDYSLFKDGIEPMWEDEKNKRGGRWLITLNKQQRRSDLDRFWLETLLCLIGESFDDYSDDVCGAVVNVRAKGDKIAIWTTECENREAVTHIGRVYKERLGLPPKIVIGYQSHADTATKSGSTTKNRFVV

Molecular target: sortase-labelled N-terminally biotinylated eIF4E (UniProt P06730)
Assay: M13 linear 12mer phage selection on immobilised biotinylated eIF4E, NGS abundance heat map, 3 replicate columns [CONT.) D]

B1: … (peptide)
peptide displayed on M13 phage (pIII): SLTYTREFLRSL
In the case of B1, the binding is reported as “binds”.
